Measured data: PubChem BioAssay AID1259424 (University of Nebraska Medical Center, 2018)

Screen: 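Find knockdowns that reproduce the expression shifts seen after KSR1 loss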 (primary screen)
Cells: human HCT116 colon cancer cells
Reagents: siRNA pool against human genes, 50 nM
Detection: 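Six signature mRNAs by branched-DNA multiplex assay, scaled to two housekeeping genes and non-targeting median, log2; matched to mean KSR1 knockdown profile by Pearson correlation and euclidean distance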
Reading the numbers: mean correlation with KSR1 profile: higher = expression change more like KSR1 knockdown
This is an unselected part of about 14,000 deposited reagents. 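Higher correlation or smaller distance means closer resemblance to KSR1 loss; control wells, including KSR1 knockdowns, recur on many plates.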 Not all columns of the deposit are shown. No sequences are given here. Not given: the time to read-out.

How did the screen score KDM4D (lysine demethylase 4D)?
mean correlation with KSR1 profile: -0.784

For CDH16 (cadherin 16), what was measured?
mean correlation with KSR1 profile: -0.152

For TMEM97 (transmembrane protein 97), what does the deposit list?
mean correlation with KSR1 profile: -0.438

For PCDHGA7 (protocadherin gamma subfamily A, 7), what does the deposit list?
mean correlation with KSR1 profile: -0.0348

Which result is listed for SPTSSB (serine palmitoyltransferase small subunit B)?
mean correlation with KSR1 profile: -0.707

Which result is listed for TECR (trans-2,3-enoyl-CoA reductase)?
mean correlation with KSR1 profile: 0.101

With WRAP73 (WD repeat containing, antisense to TP73), what does the deposit list?
mean correlation with KSR1 profile: 0.257

Which result is listed for HERC3 (HECT and RLD domain containing E3 ubiquitin protein ligase 3)?
mean correlation with KSR1 profile: -0.436

For KLF3 (KLF transcription factor 3), what was measured?
mean correlation with KSR1 profile: 0.0766

What is on record for LIPA (lipase A, lysosomal acid type)?
mean correlation with KSR1 profile: 0.122

Which result is listed for MRPL35 (mitochondrial ribosomal protein L35)?
mean correlation with KSR1 profile: -0.441

Which result is listed for RPS6KA5 (ribosomal protein S6 kinase A5)?
mean correlation with KSR1 profile: -0.0703

For ARHGEF3 (Rho guanine nucleotide exchange factor 3), how do the results read?
mean correlation with KSR1 profile: 0.201

How did the screen score VDAC2 (voltage dependent anion channel 2)?
mean correlation with KSR1 profile: -0.0972

With FIG4 (FIG4 phosphoinositide 5-phosphatase), what was measured?
mean correlation with KSR1 profile: -0.419

For CDK20 (cyclin dependent kinase 20), how do the results read?
mean correlation with KSR1 profile: 0.813

How did the screen score LILRB5 (leukocyte immunoglobulin like receptor B5)?
mean correlation with KSR1 profile: 0.504

For ONECUT1 (one cut homeobox 1), how do the results read?
mean correlation with KSR1 profile: -0.366

Which result is listed for QRFPR (pyroglutamylated RFamide peptide receptor)?
mean correlation with KSR1 profile: 0.439

For EXOC1 (exocyst complex component 1), how do the results read?
mean correlation with KSR1 profile: -0.598

Which result is listed for SLC4A8?
mean correlation with KSR1 profile: 0.302

With CASP2 (caspase 2), how do the results read?
mean correlation with KSR1 profile: -0.319

For NCR3 (natural cytotoxicity triggering receptor 3), what does the deposit list?
mean correlation with KSR1 profile: -0.52

With ALOX5AP (arachidonate 5-lipoxygenase activating protein), how do the results read?
mean correlation with KSR1 profile: 0.146

What is on record for RPS6KB1 (ribosomal protein S6 kinase B1)?
mean correlation with KSR1 profile: -0.0971

What is on record for NARS1 (asparaginyl-tRNA synthetase 1)?
mean correlation with KSR1 profile: -0.137

What is on record for KRT32 (keratin 32)?
mean correlation with KSR1 profile: -0.461

For DYM (dymeclin), what does the deposit list?
mean correlation with KSR1 profile: 0.876

In a second layout: results already given.
gene | mean correlation with KSR1 profile
SLC4A8 | 0.302
CASP2 (caspase 2) | -0.319
NCR3 (natural cytotoxicity triggering receptor 3) | -0.52
